Experimental data as given in the supplement of paper PMC10735217.
Where a name gives a salt, the structure may show the parent alone. Some of the results follow. Repeats in this data set agree poorly, so a single value says little.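 In a drug-repurposing library screen, luminescence reads luciferase driven by eight TEAD-binding elements, stably integrated into human kidney-derived cells. Compounds scoring over five robust Z scores above the plate mean are called hits.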

System: HEK293A TEAD-LUC reporter
Test: TEAD-luciferase reporter activity (YAP activation), robust Z score vs plate; higher = stronger YAP/TEAD activation
Conditions: 24 h

## COC(=O)[C@H]1CC[C@H]2[C@@H]3CC[C@H]4N(C)C(=O)CC[C@]4(C)[C@H]3CC[C@]12C
Compound concentration: 200 nM
  TEAD-luciferase reporter activity: inactive: -0.917
Compound concentration: 2 uM
  TEAD-luciferase reporter activity: inactive: 0.3
Compound concentration: 10 uM
  TEAD-luciferase reporter activity: inactive: -0.75

## Cc1c(-c2ccc(O)cc2)n(Cc2ccc(OCCN3CCCCC3)cc2)c2ccc(O)cc12
Compound concentration: 200 nM
  TEAD-luciferase reporter activity: inactive: -2.02
Compound concentration: 2 uM
  TEAD-luciferase reporter activity: inactive: 0.199
Compound concentration: 10 uM
  TEAD-luciferase reporter activity: inactive: -0.321

## CN1CCC2(CC1)CC(NC(=O)Nc1cccc3ccccc13)c1ccccc1O2 (stereo not given)
Compound concentration: 200 nM
  TEAD-luciferase reporter activity: inactive: 1.39
Compound concentration: 2 uM
  TEAD-luciferase reporter activity: inactive: 0.0367
Compound concentration: 10 uM
  TEAD-luciferase reporter activity: active: 5.05

## CN(C)C(c1cccc(O)c1)C1CCCCC1O (stereo not given) [ciramadol]
Compound concentration: 200 nM
  TEAD-luciferase reporter activity: inactive: 0.465
Compound concentration: 2 uM
  TEAD-luciferase reporter activity: inactive: -1.37
Compound concentration: 10 uM
  TEAD-luciferase reporter activity: inactive: -1.71

## COCCCC/C(=N/OCCN)c1ccc(Cl)cc1 [Clovoxamine]
Compound concentration: 200 nM
  TEAD-luciferase reporter activity: inactive: 0.0135
Compound concentration: 2 uM
  TEAD-luciferase reporter activity: inactive: 0.648
Compound concentration: 10 uM
  TEAD-luciferase reporter activity: inactive: 1.46

## Cc1sc(NC(=O)C2CCCCC2C(=O)O)nc1-c1ccc(F)cc1 (stereo not given)
Compound concentration: 200 nM
  TEAD-luciferase reporter activity: inactive: -0.417
Compound concentration: 2 uM
  TEAD-luciferase reporter activity: inactive: -0.876
Compound concentration: 10 uM
  TEAD-luciferase reporter activity: inactive: 2.07

## NCCCC[C@H](NC(=O)[C@@H]1CCCN1C(=O)[C@@H]1CSSC[C@H](N)C(=O)N[C@@H](Cc2ccc(O)cc2)C(=O)N[C@@H](Cc2ccccc2)C(=O)N[C@@H](CCC(N)=O)C(=O)N[C@@H](CC(N)=O)C(=O)N1)C(=O)NCC(N)=O [Lypressin]
Compound concentration: 200 nM
  TEAD-luciferase reporter activity: inactive: -0.0514
Compound concentration: 2 uM
  TEAD-luciferase reporter activity: inactive: 0.67
Compound concentration: 10 uM
  TEAD-luciferase reporter activity: inactive: 0.148

## Cc1ccc(C(=O)Nc2cccc(C(F)(F)F)c2)cc1NC(=O)c1cccc2c(N)nccc12
Compound concentration: 200 nM
  TEAD-luciferase reporter activity: inactive: -0.618
Compound concentration: 2 uM
  TEAD-luciferase reporter activity: inactive: -0.838
Compound concentration: 10 uM
  TEAD-luciferase reporter activity: inactive: 2.74

## C[C@]12C=CC(=O)N[C@@H]1CC[C@@H]1[C@@H]2CC[C@]2(C)[C@@H](C(=O)c3ccccc3)CC[C@@H]12
Compound concentration: 200 nM
  TEAD-luciferase reporter activity: inactive: -0.157
Compound concentration: 2 uM
  TEAD-luciferase reporter activity: inactive: -0.279
Compound concentration: 10 uM
  TEAD-luciferase reporter activity: inactive: -0.702

## COCCCN1CCC(NC(=O)c2cc(Cl)c(N)c3c2OCC3)CC1 [prucalopride succinate (IV)]
Compound concentration: 200 nM
  TEAD-luciferase reporter activity: inactive: -1.03
Compound concentration: 2 uM
  TEAD-luciferase reporter activity: inactive: -0.448
Compound concentration: 10 uM
  TEAD-luciferase reporter activity: inactive: -0.13

## COc1ccc(N(C)c2nc(C)nc3ccccc23)cc1 [verubulin]
Compound concentration: 200 nM
  TEAD-luciferase reporter activity: active: 8.19
Compound concentration: 2 uM
  TEAD-luciferase reporter activity: active: 9.05
Compound concentration: 10 uM
  TEAD-luciferase reporter activity: active: 7.22

## COc1ccc2c(c1)c(CC(=O)OCCSCC(=O)NCCCOc1cccc(CN3CCCCC3)c1)c(C)n2C(=O)c1ccc(Cl)cc1
Compound concentration: 200 nM
  TEAD-luciferase reporter activity: inactive: 2.58
Compound concentration: 2 uM
  TEAD-luciferase reporter activity: inactive: 1.57
Compound concentration: 10 uM
  TEAD-luciferase reporter activity: inactive: 0.772

## COc1cccc(N(C)C(=S)Oc2ccc3c(c2)CCCC3)n1 [liranaftate]
Compound concentration: 2 uM
  TEAD-luciferase reporter activity: inactive: 0.472

## COc1cccc(N(C)C(=S)Oc2ccc3c(c2)CCCC3)n1 [Liranaftate]
Compound concentration: 200 nM
  TEAD-luciferase reporter activity: inactive: -0.795
Compound concentration: 10 uM
  TEAD-luciferase reporter activity: inactive: -0.672

## CC(=O)NC1C(O)OC(COS(=O)(=O)O)C(OC2OC(C(=O)O)C(OC3OC(CO)C(OC4OC(C(=O)O)C(O)C(O)C4OS(=O)(=O)O)C(OS(=O)(=O)O)C3NS(=O)(=O)O)C(O)C2OS(=O)(=O)O)C1O (stereo not given) [Enoxaparin sodium]
Compound concentration: 2 uM
  TEAD-luciferase reporter activity: inactive: -0.319

## COc1ccccc1Oc1c(NS(=O)(=O)c2ccc(C)cn2)nc(-c2ccnc(-c3nnn[nH]3)c2)nc1OCCO [Clazosentan sodium]
Compound concentration: 200 nM
  TEAD-luciferase reporter activity: inactive: 0.177
Compound concentration: 2 uM
  TEAD-luciferase reporter activity: inactive: -1.62
Compound concentration: 10 uM
  TEAD-luciferase reporter activity: inactive: -1.35

## C[C@@H]1CN(c2c(F)cc3c(=O)c(C(=O)O)cn(C4COC4)c3c2Cl)C[C@@H]1N
Compound concentration: 200 nM
  TEAD-luciferase reporter activity: inactive: -0.387
Compound concentration: 2 uM
  TEAD-luciferase reporter activity: inactive: -1.52
Compound concentration: 10 uM
  TEAD-luciferase reporter activity: inactive: -0.435

## O=S(=O)(O)c1cc2c(O)c(c1)Cc1cc(S(=O)(=O)O)cc(c1O)Cc1cc(S(=O)(=O)O)cc(c1O)Cc1cc(S(=O)(=O)O)cc(c1O)Cc1cc(S(=O)(=O)O)cc(c1O)Cc1cc(S(=O)(=O)O)cc(c1O)C2
Compound concentration: 200 nM
  TEAD-luciferase reporter activity: inactive: 0.0944
Compound concentration: 2 uM
  TEAD-luciferase reporter activity: inactive: 0.305
Compound concentration: 10 uM
  TEAD-luciferase reporter activity: inactive: -1.73

## CN(C)C(=O)NC1CC2(CCN(C(=O)c3c[nH]c4ccccc34)CC2)Oc2ccccc21 (stereo not given)
Compound concentration: 200 nM
  TEAD-luciferase reporter activity: inactive: -1.53
Compound concentration: 10 uM
  TEAD-luciferase reporter activity: inactive: -1.28

## CNCCCOc1cc(F)c(-c2c(Cl)nc3ncnn3c2N[C@@H](C)C(F)(F)F)c(F)c1
Compound concentration: 2 uM
  TEAD-luciferase reporter activity: inactive: 1.33

## CNCCCOc1cc(F)c(-c2c(Cl)nc3ncnn3c2N[C@@H](C)C(F)(F)F)c(F)c1 [cevipabulin fumarate]
Compound concentration: 200 nM
  TEAD-luciferase reporter activity: inactive: 0.0105
Compound concentration: 2 uM
  TEAD-luciferase reporter activity: inactive: 3.87
Compound concentration: 10 uM
  TEAD-luciferase reporter activity: inactive: 3.79

## C[C@@H]1CN(c2c(F)c(F)c3c(=O)c(C(=O)O)cn(C4CC4)c3c2F)C[C@H](C)N1 [Orbifloxacin]
Compound concentration: 200 nM
  TEAD-luciferase reporter activity: inactive: -0.599
Compound concentration: 2 uM
  TEAD-luciferase reporter activity: inactive: 1.35
Compound concentration: 10 uM
  TEAD-luciferase reporter activity: inactive: -0.0616

## Cc1ccc(N2CCN(C)CC2)c2c1CC[C@@H](NC(=O)c1ccc(N3CCOCC3)cc1)C2
Compound concentration: 200 nM
  TEAD-luciferase reporter activity: inactive: -0.0776
Compound concentration: 2 uM
  TEAD-luciferase reporter activity: inactive: -0.855
Compound concentration: 10 uM
  TEAD-luciferase reporter activity: inactive: -0.456

## O=C(O)c1cn(-c2ccc(F)cc2)c2cc(N3CCNCC3)c(F)cc2c1=O [Sarafloxacin hydrochloride]
Compound concentration: 200 nM
  TEAD-luciferase reporter activity: inactive: -0.329
Compound concentration: 2 uM
  TEAD-luciferase reporter activity: inactive: -1.04
Compound concentration: 10 uM
  TEAD-luciferase reporter activity: inactive: 4.81

## c1cc(-c2nc3c4c(ncc3[nH]2)CCOC4)no1
Compound concentration: 200 nM
  TEAD-luciferase reporter activity: inactive: 1.2
Compound concentration: 2 uM
  TEAD-luciferase reporter activity: inactive: 0.185
Compound concentration: 10 uM
  TEAD-luciferase reporter activity: inactive: -0.917

## Cn1cnc2c1c(=O)n(CCCN1CCC(C(=O)c3ccccc3)CC1)c(=O)n2C
Compound concentration: 200 nM
  TEAD-luciferase reporter activity: inactive: -1.76
Compound concentration: 2 uM
  TEAD-luciferase reporter activity: inactive: -1.18
Compound concentration: 10 uM
  TEAD-luciferase reporter activity: inactive: 3.72
